This experiment can be described thus: qHTS Assay for Lipid Storage Modulators in Drosophila S3 Cells.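 For cell number change: cells counted by Cell Tracker Red CMTPX staining in the red channel.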 The conditions noted are these: BODIPY lipid droplet fluorescence, 18-24 h; for cell number change: measured here: cell count max response, cells fed with added oleic acid. A digest of the protocol:
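Drosophila S3 cells got compounds at several concentrations plus oleic acid (400 uM solution). Laser-scanning cytometry with 488 nm excitation read lipid droplets at 500-530 nm and cells at 575-640 nm. Percent activity was relative to 20 uM Triacsin C.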

Where [1] appears, read: measured here: cell number channel AC50, cells fed with added oleic acid.
Setting [2] is: measured here: lipid fluorescence (Fed channel) AC50, cells fed with added oleic acid.

The values that follow come from PubChem BioAssay AID2685 (National Center for Advancing Translational Sciences (NCATS), 2010).

The list shows a part of the results. Further columns of the screen follow, without active or inactive calls. Compounds called inactive in the main read-out are mostly missing here. The note in brackets gives the kind of curve behind each potency; many fits are weak.

As a reminder, the AC50 is the concentration at which the activity in the assay is half-maximal. Read a low AC50 as greater potency.

For `O=C(O)c1cccc(N2CCCC2=O)c1`, the cell number change was 17.8%.
As to `CC(CCc1ccco1)NC(=O)CCc1nnc2ccc(NCc3ccccc3)nn12` (configuration not stated), the AC50 under setting [1] was 1.3 µM [falling, full curve, poor fit].
`COC(=O)CC(NC(=O)c1ccco1)c1cccc2ccccc12` (configuration not stated): the cell number change amounted to 23.9%. For the same compound, the AC50 under setting [2] is 6.51 µM [falling, single point].
As to `CC(=O)Nc1ccc(SCC(=O)c2cc(C)n(C)c2C)cc1`, the AC50 was 4.61 µM [rising, partial curve] under setting [1] and 4.61 µM [rising, partial curve] under setting [2].
As to `C=CCOC(=O)C1=C[C@@H](c2ccc(Br)cc2)C[C@@H](OCc2ccc(CO)cc2)O1`, the cell number change was 9.87%. Also, the AC50 under setting [2] was 0.651 µM [rising, full curve, poor fit].
As to `Cn1c(=O)cc(OCCCC(=O)NCCCN2CCN(Cc3ccccc3)CC2)c2ccccc21`, the cell number change is -2.97%.
With `N#C/C(=C/c1ccc(-c2ccccc2[N+](=O)[O-])o1)C(=O)NCCN1CCCCC1`, the cell number change came to 22.1%. Moreover, the AC50 under setting [2] is 29.1 µM [rising, single point].
`CCOC(=O)c1cc2occc2n1CC(=O)NC1CCC(C)CC1` (configuration not stated): the cell number change was -0.513%.
As to `Cc1nn(C)c(C)c1/C=C(\C#N)C(N)=O`, the cell number change was -0.94%. Also, under setting [2], the AC50 is 29.1 µM [falling, single point].
Consider `COc1cc(/C=C2\SC(=S)N(CCC(=O)Nc3ccc(O)cc3)C2=O)cc(OC)c1OC`, for which the cell number change was -18%.
As for `COc1cc(N/N=C/c2ccccc2O)ncn1`, the cell number change is -12.3%. For the same compound, the AC50 under setting [2] was 0.291 µM [falling, full curve, poor fit].
For `COc1cccc(CNC(=S)Nc2cc(OC)ccc2OC)c1`, the cell number change was -8.56%.
Regarding `Cc1cc(C)c(S(=O)(=O)NCC(c2ccc3c(c2)OCO3)N2CCOCC2)c(C)c1` (configuration not stated), the cell number change came out at 37.3%. Also, the AC50 under setting [1] was 20.6 µM [rising, single point].
Consider `O=C(NCCOc1nc(N2CCCCC2)nc(N2CCOCC2)n1)Nc1ccccc1`, for which the AC50 under setting [2] was 1.64 µM [falling, partial curve].
Turning to `c1ccc(-n2nnc3ccccc32)cc1`, the cell number change amounted to 4.67%. Besides, under setting [2], the AC50 was 29.1 µM [rising, single point].
With `O=C1/C(=C/N(C(=O)c2ccco2)c2ccc(Cl)cc2)Sc2ccccc21`, the cell number change was -35.9%. Besides, under setting [1], the AC50 is 14.6 µM [falling, partial curve].
In the case of `COc1ccc(/C=N/OC/C(O)=C(\C#N)c2nc3ccccc3[nH]2)cc1OC`, the cell number change is -6.9%. The AC50 under setting [2] is 2.31 µM [rising, full curve, poor fit].
For `CCn1ccnc1CN(C)C(=O)c1cc(COc2ccc(-n3cncn3)cc2)on1`, the cell number change was determined as 9.16%.
On to `COc1ccc(CCNC(=O)c2ccc(CN3CCC(Cc4ccccc4)CC3)cc2)cc1OC`, for which the cell number change is -2.04%. Under setting [2], the AC50 is 29.1 µM [rising, single point].
For `O=C1N/C(=N\N=C\c2ccco2)SC1Cc1ccc(F)cc1` (configuration not stated), the AC50 is 0.82 µM [falling, full curve, poor fit] under setting [1] and 6.51 µM [falling, single point] under setting [2].
As for `CC(C)C(C(=O)NCc1ccco1)N(C(=O)CNS(=O)(=O)c1ccc(Cl)cc1)C1CCCC1` (configuration not stated), the cell number change was -16.5%. In addition, under setting [2], the AC50 is 14.6 µM [falling, partial curve, poor fit].
Turning to `CCOC(=O)n1c(=O)n(C)c2ccc(Br)cc21`, the cell number change was 5.7%. Further, the AC50 under setting [1] was 0.731 µM [falling, full curve].
As for `Cc1cccnc1NC(=O)c1ccc(C(=O)c2ccccc2)cc1`, the AC50 under setting [2] is 6.51 µM [rising, single point].
Consider `O=C(Nc1cccc(-c2nnn(CC(=O)N3CCc4ccccc4C3)n2)c1)C1CCC1`, for which the cell number change was 14.2%. Moreover, the AC50 under setting [1] is 0.058 µM [rising, full curve, poor fit]. Also, under setting [2], the AC50 was 29.1 µM [rising, single point].
For `O=C(CNCc1ccccn1)N1CCc2ccccc2C1`, the cell number change was -6.8%.
Take `CCN1CCCC(NC(=O)c2cc([N+](=O)[O-])ccc2OC)C1` (configuration not stated): the cell number change is -65.5%. Moreover, the AC50 under setting [1] was 25.9 µM [falling, partial curve, poor fit]. Also, the AC50 under setting [2] is 29.1 µM [falling, single point].
On to `CC12CCC(C(=O)NCCCN3CCOCC3)(C(Br)C1=O)C2(C)C` (configuration not stated), for which the cell number change was -9.82%. Moreover, the AC50 under setting [2] is 7.31 µM [falling, partial curve].
In the case of `O=C(O)/C=C/C(=O)OC1CC2CCC1C2` (configuration not stated), the cell number change was -12.3%.
As to `COc1cc(NC(=O)CN2CCN(c3ccccc3O)CC2)c(C)cc1[N+](=O)[O-]`, the cell number change is -33.3%. For the same compound, the AC50 under setting [1] was 0.651 µM [falling, full curve, poor fit]. In addition, under setting [2], the AC50 is 1.64 µM [rising, single point].
As for `COc1ccc(-c2noc(CCC(=O)N3CCN(c4cc(C)ccc4C)CC3)n2)cc1`, the cell number change is -46.2%. Further, the AC50 under setting [1] is 29.1 µM [falling, single point]. In addition, under setting [2], the AC50 was 23.1 µM [falling, single point].
With `COc1ccc(NC(=O)CN(C)C(=O)CSc2ccc(Br)cc2)cc1`, the cell number change stood at 6.8%. Further, the AC50 under setting [2] was 0.206 µM [rising, full curve, poor fit].
In the case of `Cc1ccc(C2=NN(C(=O)CSc3nnnn3C)C(c3ccco3)C2)cc1` (configuration not stated), the cell number change was -3.61%. Under setting [1], the AC50 is 6.51 µM [rising, single point]. Further, under setting [2], the AC50 is 6.51 µM [rising, single point].
Turning to `CCOc1ccc(CCNC(=O)COC(=O)/C=C/c2ccc(OC)c(OC)c2)cc1OCC`, the cell number change is -39.9%. In addition, the AC50 under setting [1] was 1.3 µM [falling, full curve]. Also, under setting [2], the AC50 is 1.03 µM [falling, full curve].
In the case of `COc1cccc(-c2cn3nc4c(nc3n2)CCCC4)c1`, the cell number change was -13.5%.
As to `Cn1cnnc1SCC(C)(C)NS(=O)(=O)c1ccc(Cl)cc1`, the cell number change worked out at 2.63%.
For the compound `COc1ccc(-c2nnc(SCC(=O)c3[nH]c(C)c(C(C)=O)c3C)o2)cc1`, the cell number change was -20.8%.
Turning to `O=C(O)CC/C(=N\Nc1ccc(S(=O)(=O)N2CCCC2)cc1[N+](=O)[O-])c1cccs1`, the AC50 under setting [2] is 0.00517 µM [falling, full curve, poor fit].
In the case of `COc1cc(Cn2nnc3ccccc32)cc(Br)c1O`, the cell number change stood at 12.6%. Moreover, the AC50 under setting [2] was 2.91 µM [rising, single point].
In the case of `CCOc1ccccc1-n1c(SCC(=O)NC2CCCC2)nnc1-c1ccoc1C`, the cell number change came out at 110%. Under setting [1], the AC50 is 1.84 µM [rising, full curve]. The AC50 under setting [2] was 1.64 µM [rising, full curve].
`CS(=O)(=O)c1ccc2nc(NC(=O)CCNC(=O)c3ccccc3Cl)sc2c1`: the cell number change worked out at 1.29%. Also, the AC50 under setting [2] is 0.58 µM [rising, single point].
